# Primary screen of a compound library

Data taken from ChEMBL document CHEMBL3988442, “University of Dundee, Small-Polar-MMV Screening Library” (2021).

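Viability assay of Plasmodium falciparum sporozoites; the read-out is not stated. The concentration is filed as 10 mM, unlikely as a test dose, so the dose is not known. Higher reads as lower viability (inferred: compounds with an IC50 in retests scored well above the rest). Strong results were mostly tested again. Of about 34,000 compounds tested this way, about 280 (0.84%) reached 50% or more in at least one test.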

The filed quantity is “Percent Effect” (%).
The controls that fix the scale are not given in the record; negative values are as filed.
Compounds were drawn at random from those tested, without regard to their results.
Two or more numbers in one place are separate tests of the same structure; such repeats can differ widely.

- CCc1nc(C)c(C(=O)NCCNc2ncccn2)s1 : -6.112%
- O=C(c1ccc(NC2CC2)nc1)N1CCCC(n2cccn2)C1 (configuration not stated) : -11.21%
- Cc1cccc(N2CCOCC3(C2)CN(c2ccccc2)C(=O)CO3)n1.O=C(O)C(F)(F)F (configuration not stated) : 8.305%
- CC(c1ncc(-c2ccccc2)o1)N1CCN(C(=O)N(C)C)CC1 (configuration not stated) : 6.983%
- COCCO[C@H]1CCN(c2ccc(C)nn2)[C@H]1Cc1cnn(C)c1 : -9.206%
- COc1ccc(-c2nccnc2C2CCN(C(C)=O)CC2)cc1 : 1.777%
- O=C(CC1OCCc2ccsc21)NCC1CC1 (configuration not stated) : 5.714%
- COCc1cc(O)nc(C2CCCN(Cc3ccc(F)cc3)C2)n1 (configuration not stated) : 12.38%
- CC(C)(C)c1nc(CN2CCc3onc(-c4cccc(F)c4)c3C2)no1 : -15.23%
- CCC1=NN2C(=N)/C(=C\c3cccn3-c3cccc(Cl)c3)C(=O)N=C2S1 : 7.61%
- Cc1nc2c(c(N[C@@H](CO)C(N)=O)n1)Cc1ccccc1OC2 : 8.057%
- COCCCN(Cc1ccccn1)Cc1ccnn1C1CCCCO1.O=C(O)CC(O)(CC(=O)O)C(=O)O (configuration not stated) : 2.777%
- Cn1nccc1CNC(=O)Nc1cc(C(F)(F)F)c[nH]c1=O : 3.792%
- O=C(O)C(F)(F)F.[H][C@@]12CN(Cc3cncn3C)C[C@]1([H])OCCN2c1ncccn1 : 3.535%
- Cc1ncc(CN2CCc3c(nc4cc(C5CC5)nn4c3O)C2)n1C : 20.6%
- Cc1nnn2c1COCC(CNCc1nccs1)C2.O=C(O)C(F)(F)F (configuration not stated) : 2.641%
- COc1ccc(OC)c(NC(=O)NCC(O)c2ccc(F)c(F)c2)c1 (configuration not stated) : 4.535%
- CCCc1nc(N2CCCN(c3ccncc3)CC2)c2cnn(C)c2n1 : -2.308%
- Cc1nccn1CC1CCCN1CCCc1nc(-c2cccs2)no1 (configuration not stated) : -8.034% and 6.4% and 32.51%
- Cn1nc(CN2CCCCC2)c2c1CN(C(=O)c1ccoc1)C2 : -13.49%
- O=C(O)C(F)(F)F.[H][C@@]12CN(CC3CCOC3)C[C@@]1([H])N(Cc1cccc(F)c1)C(=O)CO2 (some centres not stated) : 5.219%
- COCC(=O)N1CCC(O)(CN2CCN(c3ccccc3)CC2)C1 (configuration not stated) : -8.056%
- CC(=O)c1cccc(OCC(=O)NS(=O)(=O)c2cccs2)c1 : -1.413%
- O=C(CCNc1ncccn1)N1CCCN(c2nccs2)CC1 : 10.95%
- CC(Cn1ccnc1)NC(=O)NCc1ccc2c(c1)OCCO2 (configuration not stated) : 44.99% and 36.32% and 42.76%
- Cc1nn(C)c(C)c1C1CCCN1Cc1nc2ccccc2o1 (configuration not stated) : 14.79%
- Cc1nc(-c2ccsc2)ccc1C(=O)NCCCN1CCOCC1 : 0.8275%
- O=C(O)C(F)(F)F.O=C(O)C(F)(F)F.[H][C@@]12CN(CC3CC3)C[C@]1([H])OCCN2c1ncccn1 : 3.596%
- CCc1ccccc1CN1CC[C@@H](NC(=O)c2cccnc2)[C@H](O)C1 : -12.54%
- O=C(NCCC(=O)N1CCCCCCC1)c1ccoc1 : -1.283%
- O=S(=O)(CCN1CCN(c2ccccc2O)CC1)c1ccc(Cl)cc1 : 1.754%
- CN(C)C(=O)CSc1nnc(CCNC(=O)OC(C)(C)C)o1 : 11.4%
- CC(C(=O)N1CCC(Nc2cccnn2)CC1)n1ccnc1 (configuration not stated) : 3.04%
- COc1ccc(Oc2cncc(C3CCCN3C(C)=O)n2)cc1 (configuration not stated) : 1.303%
- Cc1nc(CC(=O)N2CCC[C@H]2c2nc(C(C)C)no2)cs1 : -6.495%
- c1ccc2sc(N3CCCC4(CCOC4)C3)nc2c1 (configuration not stated) : -44.73% and -22.63% and -45.78%
- CCCN(C(=O)CNC1CCc2ncnn2C1)C1=CCCCC1 (configuration not stated) : -9.358%
- CC(C)OC(=O)N1CCC(Cc2ccc(C(=O)O)cc2)C1 (configuration not stated) : 5.074%
- CC(O)CC(C)(C)CNC(=O)NCc1cccc(-n2ccnc2)c1 (configuration not stated) : 8.535%
- COCC1CC2(CCN(Cc3nc(C)cs3)CC2)CO1 (configuration not stated) : 0.8439%
- CN1CCN(Cc2cccc(NCc3cc[nH]n3)c2)CC1 : 2.558%
- O=C(c1ccnnc1)N1CCC2(CC1)CCN(C(=O)c1cccnc1)C2 : -3.809%
- CCN1CC(COC(C)(C)C)Oc2ccncc2S1(=O)=O (configuration not stated) : 1.244%
- CCc1csc(C2CCCN(C(=O)c3ccc4c(c3)OCO4)C2)n1 (configuration not stated) : 4.153%

For reference, 4 entries once more:

With COCc1cc(O)nc(C2CCCN(Cc3ccc(F)cc3)C2)n1 (configuration not stated) the screen gave 12.38%.
With O=C(CC1OCCc2ccsc21)NCC1CC1 (configuration not stated) the screen gave 5.714%.
With Cc1cccc(N2CCOCC3(C2)CN(c2ccccc2)C(=O)CO3)n1.O=C(O)C(F)(F)F (configuration not stated) the screen gave 8.305%.
With O=S(=O)(CCN1CCN(c2ccccc2O)CC1)c1ccc(Cl)cc1 the screen gave 1.754%.